# Laboratory results reported in the supplement of paper PMC8728848.
# This is one part of the list.
# B1: Thrombomodulin Extracellular (Mus musculus), P15306 (protein)
# chain: MLGIFFLGVLAPASLGLSALAKLQPTGSQCVEHECFALFQGPATFLDASQACQRLQGHLMTVRSSVAADVISLLLSQSSMDLGPWIGLQLPQGCDDPVHLGPLRGFQWVTGDNHTSYSRWARPNDQTAPLCGPLCVTVSTATEAAPGEPAWEEKPCETETQGFLCEFYFTASCRPLTVNTRDPEAAHISSTYNTPFGVSGADFQTLPVGSSAAVEPLGLELVCRAPPGTSEGHWAWEATGAWNCSVENGGCEYLCNRSTNEPRCLCPRDMDLQADGRSCARPVVQSCNELCEHFCVSNAEVPGSYSCMCETGYQLAADGHRCEDVDDCKQGPNPCPQLCVNTKGGFECFCYDGYELVDGECVELLDPCFGSNCEFQCQPVSPTDYRCICAPGFAPKPDEPHKCEMFCNETSCPADCDPNSPTVCECPEGFILDEGSVCTDIDECSQGECFTSECRNFPGSYECICGPDTALAGQISKDCDPIPVREDTKEEEGSGEPPVSPTPGSPTGPPSARPVHSGVLIGISIASLSLVVALLALLCHLRKKQGAARAELEYKCASSAKEVVLQHVRTDRTLQKF
# Columns and labels:
# Assay in all cases: glycan array binding signal (z-score within array); higher = stronger binding
# Details in all cases: glycan notation: IUPAC condensed, linker removed
# [1] = biological target: Gal(b1-4)GlcNAc(b1-3)Gal(b1-4)GlcNAc(b1-2)[Gal(b1-4)GlcNAc(b1-3)Gal(b1-4)GlcNAc(b1-6)]Man(a1-6)[Gal(b1-4)GlcNAc(b1-3)Gal(b1-4)GlcNAc(b1-2)Man(a1-3)]Man(b1-4)GlcNAc(b1-4)GlcNAc
# In short: (§1)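 The binding signal is a Z-score computed within each array. Data were drawn from 3228 arrays in the Consortium for Functional Glycomics database, restricted to those with a known protein sequence. Scores were averaged over arrays of the same protein sequence at different concentrations or buffers, and over linkers, and negative values can be taken as non-binding.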
# [2] = biological target: Gal(b1-4)GlcNAc(b1-3)Gal(b1-4)GlcNAc(b1-2)[Gal(b1-4)GlcNAc(b1-3)Gal(b1-4)GlcNAc(b1-6)]Man(a1-6)[Gal(b1-4)GlcNAc(b1-3)Gal(b1-4)GlcNAc(b1-2)Man(a1-3)]Man(b1-4)GlcNAc(b1-4)[Fuc(a1-6)]GlcNAc
# In short: as §1
# [3] = biological target: Gal(b1-4)GlcNAc(b1-3)Gal(b1-4)GlcNAc(b1-3)Gal(b1-4)GlcNAc
# In short: as §1
# [4] = biological target: Gal(b1-4)GlcNAc(b1-3)Gal(b1-4)GlcNAc(b1-3)Gal(b1-4)GlcNAc(b1-2)Man(a1-3)[Gal(b1-4)GlcNAc(b1-3)Gal(b1-4)GlcNAc(b1-3)Gal(b1-4)GlcNAc(b1-2)Man(a1-6)]Man(b1-4)GlcNAc(b1-4)GlcNAc
# In short: as §1
# [5] = biological target: Gal(b1-4)GlcNAc(b1-3)Gal(b1-4)GlcNAc(b1-3)Gal(b1-4)GlcNAc(b1-2)Man(a1-3)[Gal(b1-4)GlcNAc(b1-3)Gal(b1-4)GlcNAc(b1-3)Gal(b1-4)GlcNAc(b1-2)Man(a1-6)]Man(b1-4)GlcNAc(b1-4)[Fuc(a1-6)]GlcNAc
# In short: as §1
# [6] = biological target: Gal(b1-4)GlcNAc(b1-3)Gal(b1-4)GlcNAc(b1-3)Gal(b1-4)GlcNAc(b1-2)[Gal(b1-4)GlcNAc(b1-3)Gal(b1-4)GlcNAc(b1-3)Gal(b1-4)GlcNAc(b1-6)]Man(a1-6)[Gal(b1-4)GlcNAc(b1-3)Gal(b1-4)GlcNAc(b1-3)Gal(b1-4)GlcNAc(b1-2)Man(a1-3)]Man(b1-4)GlcNAc(b1-4)[Fuc(a1-6)]GlcNAc
# In short: as §1
# [7] = biological target: Gal(b1-4)GlcNAc(b1-3)Gal(b1-4)GlcNAc(b1-3)Gal(b1-4)GlcNAc(b1-3)Gal(b1-4)GlcNAc(b1-2)Man(a1-3)[Gal(b1-4)GlcNAc(b1-3)Gal(b1-4)GlcNAc(b1-3)Gal(b1-4)GlcNAc(b1-3)Gal(b1-4)GlcNAc(b1-2)Man(a1-6)]Man(b1-4)GlcNAc(b1-4)GlcNAc
# In short: as §1
# [8] = biological target: Gal(b1-4)GlcNAc(b1-3)Gal(b1-4)GlcNAc(b1-3)Gal(b1-4)GlcNAc(b1-3)Gal(b1-4)GlcNAc(b1-2)Man(a1-3)[Gal(b1-4)GlcNAc(b1-3)Gal(b1-4)GlcNAc(b1-3)Gal(b1-4)GlcNAc(b1-3)Gal(b1-4)GlcNAc(b1-2)Man(a1-6)]Man(b1-4)GlcNAc(b1-4)[Fuc(a1-6)]GlcNAc
# In short: as §1
# [9] = biological target: Gal(b1-4)GlcNAc(b1-3)Gal(b1-4)GlcNAc(b1-3)Gal(b1-4)GlcNAc(b1-3)Gal(b1-4)GlcNAc(b1-2)[Gal(b1-4)GlcNAc(b1-3)Gal(b1-4)GlcNAc(b1-3)Gal(b1-4)GlcNAc(b1-3)Gal(b1-4)GlcNAc(b1-6)]Man(a1-6)[Gal(b1-4)GlcNAc(b1-3)Gal(b1-4)GlcNAc(b1-3)Gal(b1-4)GlcNAc(b1-3)Gal(b1-4)GlcNAc(b1-2)Man(a1-3)]Man(b1-4)GlcNAc(b1-4)[Fuc(a1-6)]GlcNAc
# In short: as §1
# [10] = biological target: Gal(b1-4)GlcNAc(b1-3)Gal(b1-4)GlcNAc(b1-3)Gal(b1-4)GlcNAc(b1-3)Gal(b1-4)GlcNAc(b1-3)Gal(b1-4)GlcNAc(b1-2)Man(a1-3)[Gal(b1-4)GlcNAc(b1-3)Gal(b1-4)GlcNAc(b1-3)Gal(b1-4)GlcNAc(b1-3)Gal(b1-4)GlcNAc(b1-3)Gal(b1-4)GlcNAc(b1-2)Man(a1-6)]Man(b1-4)GlcNAc(b1-4)GlcNAc
# In short: as §1
# [11] = biological target: Gal(b1-4)GlcNAc(b1-3)Gal(b1-4)GlcNAc(b1-3)Gal(b1-4)GlcNAc(b1-3)Gal(b1-4)GlcNAc(b1-3)Gal(b1-4)GlcNAc(b1-2)Man(a1-3)[Gal(b1-4)GlcNAc(b1-3)Gal(b1-4)GlcNAc(b1-3)Gal(b1-4)GlcNAc(b1-3)Gal(b1-4)GlcNAc(b1-3)Gal(b1-4)GlcNAc(b1-2)Man(a1-6)]Man(b1-4)GlcNAc(b1-4)[Fuc(a1-6)]GlcNAc
# In short: as §1
# [12] = biological target: Gal(b1-4)GlcNAc(b1-3)Gal(b1-4)GlcNAc(b1-3)Gal(b1-4)GlcNAc(b1-3)Gal(b1-4)GlcNAc(b1-3)Gal(b1-4)GlcNAc(b1-2)[Gal(b1-4)GlcNAc(b1-3)Gal(b1-4)GlcNAc(b1-3)Gal(b1-4)GlcNAc(b1-3)Gal(b1-4)GlcNAc(b1-3)Gal(b1-4)GlcNAc(b1-6)]Man(a1-6)[Gal(b1-4)GlcNAc(b1-3)Gal(b1-4)GlcNAc(b1-3)Gal(b1-4)GlcNAc(b1-3)Gal(b1-4)GlcNAc(b1-3)Gal(b1-4)GlcNAc(b1-2)Man(a1-3)]Man(b1-4)GlcNAc(b1-4)[Fuc(a1-6)]GlcNAc
# In short: as §1
# [13] = biological target: Gal(b1-4)GlcNAc(b1-3)Gal(b1-4)GlcNAc(b1-3)Gal(b1-4)GlcNAc(b1-3)Gal(b1-4)GlcNAc(b1-3)Gal(b1-4)GlcNAc(b1-3)Gal(b1-4)GlcNAc(b1-2)Man(a1-3)[Gal(b1-4)GlcNAc(b1-3)Gal(b1-4)GlcNAc(b1-3)Gal(b1-4)GlcNAc(b1-3)Gal(b1-4)GlcNAc(b1-3)Gal(b1-4)GlcNAc(b1-3)Gal(b1-4)GlcNAc(b1-2)Man(a1-6)]Man(b1-4)GlcNAc(b1-4)GlcNAc
# In short: as §1
# [14] = biological target: Gal(b1-4)GlcNAc(b1-3)Gal(b1-4)GlcNAc(b1-3)GalNAc
# In short: as §1
# [15] = biological target: Gal(b1-4)GlcNAc(b1-3)Gal(b1-4)GlcNAc(b1-3)[Gal(b1-4)GlcNAc(b1-3)Gal(b1-4)GlcNAc(b1-6)]GalNAc
# In short: as §1
# [16] = biological target: Gal(b1-4)GlcNAc(b1-3)Gal(b1-4)GlcNAc(b1-6)[Gal(b1-3)]GalNAc
# In short: as §1
# [17] = biological target: Gal(b1-4)GlcNAc(b1-3)Gal(b1-4)[Fuc(a1-3)]GlcNAc(b1-3)Gal(b1-4)[Fuc(a1-3)]GlcNAc
# In short: as §1
# [18] = biological target: Gal(b1-4)GlcNAc(b1-3)GalNAc
# In short: as §1
# [19] = biological target: Gal(b1-4)GlcNAc(b1-3)[Fuc(a1-3)GlcNAc(b1-6)]Gal(b1-4)Glc
# In short: as §1
# [20] = biological target: Gal(b1-4)GlcNAc(b1-3)[Gal(b1-4)GlcNAc(b1-6)]Gal(b1-4)GlcNAc
# In short: as §1
# [21] = biological target: Gal(b1-4)GlcNAc(b1-3)[GlcNAc(b1-6)]Gal(b1-4)GlcNAc
# In short: as §1
# [22] = biological target: Gal(b1-4)GlcNAc(b1-6)Gal(b1-4)GlcNAc
# In short: as §1
# [23] = biological target: Gal(b1-4)GlcNAc(b1-6)GalNAc
# In short: as §1
# [24] = biological target: Gal(b1-4)GlcNAc(b1-6)[Gal(b1-3)]GalNAc
# In short: as §1
# [25] = biological target: Gal(b1-4)GlcNAc(b1-6)[Gal(b1-4)GlcNAc(b1-3)]GalNAc
# In short: as §1
# Gal(b1-4)GlcNAc6P = biological target: Gal(b1-4)GlcNAc6P
# In short: as §1
# Gal(b1-6)Gal = biological target: Gal(b1-6)Gal
# In short: as §1
# Gal3S(b1-3)GalNAc = biological target: Gal3S(b1-3)GalNAc
# In short: as §1
# Gal3S(b1-3)GlcNAc = biological target: Gal3S(b1-3)GlcNAc
# In short: as §1
# [26] = biological target: Gal3S(b1-3)[Fuc(a1-4)]GlcNAc
# In short: as §1
binder,measurement,setting,value
B1,glycan array binding signal (z-score),[1],1.69
same,glycan array binding signal (z-score),[2],-0.517
same,glycan array binding signal (z-score),[3],0.01
same,glycan array binding signal (z-score),[4],0.95
same,glycan array binding signal (z-score),[5],1.36
same,glycan array binding signal (z-score),[6],1.22
same,glycan array binding signal (z-score),[7],1.97
same,glycan array binding signal (z-score),[8],2.27
same,glycan array binding signal (z-score),[9],0.42
same,glycan array binding signal (z-score),[10],-0.095
same,glycan array binding signal (z-score),[11],2.04
same,glycan array binding signal (z-score),[12],1.39
same,glycan array binding signal (z-score),[13],-0.831
same,glycan array binding signal (z-score),[14],0.001
same,glycan array binding signal (z-score),[15],1.96
same,glycan array binding signal (z-score),[16],-0.025
same,glycan array binding signal (z-score),[17],-0.704
same,glycan array binding signal (z-score),[18],-0.02
same,glycan array binding signal (z-score),[19],-0.32
same,glycan array binding signal (z-score),[20],-0.389
same,glycan array binding signal (z-score),[21],-1.99
same,glycan array binding signal (z-score),[22],-1.93
same,glycan array binding signal (z-score),[23],0.988
same,glycan array binding signal (z-score),[24],-0.832
same,glycan array binding signal (z-score),[25],0.229
same,glycan array binding signal (z-score),Gal(b1-4)GlcNAc6P,0.737
same,glycan array binding signal (z-score),Gal(b1-6)Gal,-0.213
same,glycan array binding signal (z-score),Gal3S(b1-3)GalNAc,1.79
same,glycan array binding signal (z-score),Gal3S(b1-3)GlcNAc,-1.52
same,glycan array binding signal (z-score),[26],-0.845

# 2 entries from above in another layout.
binder	measurement	setting	value
B1	glycan array binding signal (z-score)	[19]	-0.32
same	glycan array binding signal (z-score)	[20]	-0.389
